# From PubChem BioAssay AID504467 (National Center for Advancing Translational Sciences (NCATS), 2011)
# Out of some 330,000 compounds screened, about 7,700 (2.3%) were called active. Inconclusive means that the source gave no clear call. Such entries were picked first, then a sample of the others. The call rests on the fitted dose curve; in most records, active means well fitted inhibition curve with a large enough effect; inconclusive means small, poorly fitted or top-dose-only effect, or effect the other way; inactive means flat fitted curve, though single readings scatter. Potencies beside an inconclusive call are fits to weak or partial responses and may not hold up.
# Experiment: qHTS screen for small molecules that inhibit ELG1-dependent DNA repair in human embryonic kidney (HEK293T) cells expressing luciferase-tagged ELG1; further: nearly all actives have a fitted effect of over 55% in size
# Conditions: HEK293T ELG1-luciferase reporter, luminescence, 16 h, DNA damage induced by 5-fluorouridine; series mostly up to 46.1 µM
# Summary of the method: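 Quantitative HTS, concentration-response format. 2,000 cells/well co-treated with 5-fluorouridine and compound, 16 hr in 5% CO2 at 37 °C; ONE-Glo luminescence read after 30 min.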
# Potency means the concentration at half of the fitted maximal effect.
row,Structure (SMILES),Potency
1,C#CC(CC)(CC)NC(=S)Nc1ccc(S(N)(=O)=O)cc1,"inconclusive: 25.9 µM [activator, single point]"
2,O=C(O)c1ccnc(SCC(=O)c2ccccc2)c1,inactive
3,O=C1CC(NCc2ccccc2F)C(=O)N1c1ccccc1 (stereo not given),"inconclusive: 0.0052 µM [activator, full curve, poor fit]"
4,COc1ccc(NC(=O)CNS(=O)(=O)c2cccs2)c(OC)c1,"inconclusive: 25.9 µM [activator, single point]"
5,CC(C)(C)NC(=O)NC(=O)CN1CCN(C(c2ccccc2)c2ccccc2)CC1,"inconclusive: 18.3 µM [inhibitor, single point]"
6,COc1ccc(CCNC(=O)C(=O)NCC2OCCN2S(=O)(=O)c2ccc(Br)cc2)cc1 (stereo not given),"inconclusive: 18.4 µM [inhibitor, single point]"
7,O=C(CCl)N(Cc1cc(=O)[nH]c2ccccc12)c1ccccc1,active: 13 µM
8,CCOc1ccc(S(=O)(=O)N2CCC(C(=O)NC3CC3)CC2)cc1C,inactive
9,Cc1ccc(-c2[nH]ncc2/C=N/n2c(COc3ccccc3C)nc3ccccc3c2=O)cc1,active: 2.59 µM
10,Cn1c(CNc2nc(-c3ccccc3)cs2)nnc1SCC(=O)c1ccccc1,"inconclusive: 16.4 µM [inhibitor, partial curve, poor fit]"
11,CC1Sc2ccc(S(=O)(=O)N3CCC(C(=O)NCc4ccccc4)CC3)cc2NC1=O (stereo not given),"inconclusive: 16.4 µM [inhibitor, partial curve]"
12,CCOc1ccc(N(CC(=O)Nc2ccc(C)c(Cl)c2)S(C)(=O)=O)cc1,inactive
13,NS(=O)(=O)c1ccc(NC(=O)c2ccc(S(=O)(=O)N3CCc4ccccc43)cc2)cc1,inactive
14,O=C(COc1ccccc1)Nc1nc(-c2ccc(S(=O)(=O)N3CCOCC3)cc2)cs1,"inconclusive: 29.1 µM [inhibitor, single point]"
15,Cc1cc2n(n1)C(c1ccc(N(C)C)cc1)Nc1ccccc1-2 (stereo not given),"inconclusive: 20.6 µM [activator, single point]"
16,COc1ccccc1N1CCN(CC(=O)Nc2ccc(Cl)c(C(F)(F)F)c2)CC1,"inconclusive: 29.1 µM [inhibitor, single point]"
17,O=C(CN1C(=O)NC2(CCCCCC2)C1=O)N1CCN(c2ccccc2)CC1,inactive
18,CC(C)NC(=O)N(C)C[C@H]1Oc2ccc(NC(=O)Nc3ccccc3)cc2C(=O)N([C@H](C)CO)C[C@@H]1C,"inconclusive: 23.1 µM [activator, partial curve, poor fit]"
19,O=C(Nc1ccc(F)cc1)c1cccc(N2C(=O)C3C4CCC(C4)C3C2=O)c1 (stereo not given),"inconclusive: 4.11 µM [inhibitor, partial curve, poor fit]"
20,CCCCn1nc(NC(=O)CCC)c2cc3cc(OC)ccc3nc21,inactive
21,Cn1c(=O)c2[nH]c(-c3ccccc3)nc2n(C)c1=O,inactive
22,O=C(N/N=C1/C(=O)c2cccc3cccc1c23)c1ccc(Cl)cc1,"inconclusive: 20.6 µM [activator, single point]"
23,Nc1nonc1-c1noc(CCCCCN2C(=O)c3ccccc3C2=O)n1,"inconclusive: 16.4 µM [activator, partial curve]"
24,Oc1cccc(/C=N/NC(=S)NCCN2CCOCC2)c1O,"inconclusive: 29.1 µM [inhibitor, single point]"

row,Structure (SMILES),Potency
1,O=C(O)c1ccc(N2C(=O)CC(N3C(=O)/C(=C/c4ccc(Cl)cc4)SC3=S)C2=O)cc1 (stereo not given),inactive
2,CCN(CC(=O)Nc1cc(Cl)ccc1C)C(=O)CCS(=O)(=O)c1ccc(Cl)cc1,inactive
3,COC(=O)c1c(C)[nH]c(C)c1-c1cccc([N+](=O)[O-])c1,"inconclusive: 18.3 µM [inhibitor, partial curve]"
4,N=c1n(CC(=O)c2ccc([N+](=O)[O-])cc2)c2ccccc2n1Cc1ccc(Cl)cc1,"inconclusive: 29.1 µM [inhibitor, single point]"
5,O=C(N/N=C/c1ccc(O)cc1)Nc1cccc2nsnc12,"inconclusive: 13 µM [inhibitor, partial curve]"
6,Clc1cccc(N=C2NN=C(c3ccc4c(c3)OCCO4)CS2)c1,"inconclusive: 2.59 µM [activator, partial curve]"
7,O=C(Nc1ccccc1C(F)(F)F)N1CCN(c2ccc3nncn3n2)CC1,inactive
8,Cc1cc(C)c2sc(N(CCN(C)C)C(=O)CCS(=O)(=O)c3ccccc3)nc2c1,inactive
9,COc1cccc(CN2CCC(C(=O)N3CCN(Cc4ccc5c(c4)OCO5)CC3)CC2)c1,inactive
10,O=C(NNC(=O)C(O)c1ccccc1)NC1CCCCC1 (stereo not given),"inconclusive: 20.6 µM [activator, partial curve, poor fit]"
11,C=CC[n+]1c(-c2ccc(OC)c(OC)c2)csc1NNC(=O)Nc1ccccc1,"inconclusive: 18.4 µM [inhibitor, single point]"
12,CCOC(=O)c1csc(-c2ccc(OC)c(OC)c2)n1,"inconclusive: 29.1 µM [activator, single point]"
13,O=C(CCl)N=c1sccn1Cc1ccccc1Cl,"inconclusive: 14.6 µM [inhibitor, partial curve]"
14,O=S1(=O)CCN(Cc2ccc(F)cc2)CC1,"inconclusive: 29.1 µM [inhibitor, single point]"
15,O=C(CN(C(=O)CNC(=O)c1ccco1)c1ccc(Cl)c(Cl)c1)NC1CCCCC1,inactive
16,COc1ccc(Cn2c(=O)[nH]c3cc(C(=O)N4CCN(c5ccc(C(C)=O)cc5)CC4)ccc3c2=O)cc1,"inconclusive: 4.11 µM [inhibitor, full curve]"
17,COCCn1c(C)cc(C(=O)Cn2nc(C(=O)O)c3ccccc3c2=O)c1C,"inconclusive: 10.3 µM [activator, partial curve]"
18,CCC(=O)NNc1nc2c(C)c(C)ccc2s1,"inconclusive: 32.6 µM [activator, partial curve, poor fit]"
19,COc1ccc(CNC(=O)CCCn2c(SCC#N)nc3cc4c(cc3c2=O)OCO4)cc1,active: 23.1 µM
20,CCOc1cc(/C=N/NC(=O)CSc2cccc3cccnc23)ccc1O,"inconclusive: 20.6 µM [inhibitor, single point]"
21,COCCNc1oc(COc2cccc(C)c2)nc1C#N,"inconclusive: 20.6 µM [activator, single point]"
22,CCCN(c1ccc(C)cc1)c1nc(=O)c2cccnc2s1,"inconclusive: 25.9 µM [inhibitor, single point]"
23,Cc1nc2ccccc2n1Cc1ccccc1,"inconclusive: 8.2 µM [inhibitor, partial curve, poor fit]"
24,OCCOCCNc1ncnc2c1c(-c1ccccc1)cn2-c1ccccc1,"inconclusive: 23.1 µM [inhibitor, single point]"

# 2 of the compounds above, bar-delimited.
row | Structure (SMILES) | Potency
16 | COc1ccccc1N1CCN(CC(=O)Nc2ccc(Cl)c(C(F)(F)F)c2)CC1 | inconclusive: 29.1 µM [inhibitor, single point]
23 | Cc1nc2ccccc2n1Cc1ccccc1 | inconclusive: 8.2 µM [inhibitor, partial curve, poor fit]

# More records

row,Structure (SMILES),Potency
1,O=C(NCCCNC(=O)C(F)(F)C(F)F)C(F)(F)C(F)F,"inconclusive: 14.1 µM [activator, single point]"
2,CCN1CCN(CCOCCOc2ccccc2-c2ccccc2)CC1,inactive
3,O=C(NCc1ccco1)c1cccn2c(=O)c3cc4ccccc4cc3nc12,inactive
4,Cc1ccccc1C1c2[nH]c3ccccc3c2CCN1Cc1cccn1-c1ncccn1 (stereo not given),"inconclusive: 23.1 µM [inhibitor, partial curve, poor fit]"
5,CC(C)(C)OC(=O)CN1C(=O)NC2(CCCc3ccccc32)C1=O (stereo not given),inactive
6,O=C(CCCNC(=O)/C(=C/c1ccc(F)cc1)NC(=O)c1ccccc1)OCc1ccccc1,"inconclusive: 16.4 µM [inhibitor, partial curve, poor fit]"
7,Nc1cc(-c2nc3ncccc3o2)ccc1Cl,"inconclusive: 11.6 µM [activator, partial curve]"
8,COc1cc(/C=N/N=C(\N)c2nonc2N)ccc1O,"inconclusive: 18.3 µM [activator, partial curve]"
9,Cc1sc2c(c1C)CN(Cc1ccncc1)CN2C(=O)c1ccco1,"inconclusive: 16.4 µM [activator, partial curve, poor fit]"
10,CCn1c(O)c(C=C2N=c3ccccc3=N2)sc1=S,inactive
11,COc1ccc(OC)c(C2CC(=O)Nc3cc(OC)c(OC)c(OC)c32)c1 (stereo not given),"inconclusive: 18.4 µM [activator, partial curve]"
12,COc1ccc(/C=C(\C#N)C(=O)OCC(=O)NCc2ccc(Cl)cc2)cc1,inactive
13,O=c1c(/C=C(\O)c2ccccc2)nc2ccccc2n1-c1ccccc1,inactive
14,CCn1c(SCC(=O)N(C)CC(=O)Nc2ccc(OC)cc2)nnc1-c1ccco1,inactive
15,O=C(C1CCCN(S(=O)(=O)c2cccnc2)C1)N1CCN(c2ccccn2)CC1 (stereo not given),"inconclusive: 32.6 µM [inhibitor, partial curve, poor fit]"
16,NC(=O)c1ccc(S(=O)(=O)N2CCSCC2)cc1,inactive
17,CCCCC(=O)OCc1c(-c2cccc(OC)c2)ncc2ccccc12,"inconclusive: 5.8 µM [inhibitor, partial curve, poor fit]"
18,COc1cc2c3c(c1OC)C1(C=CC(=NO)C=C1)CC3N(C(C)=O)CC2 (stereo not given),inactive
19,O=C(NCCN1CCCC1)C(c1ccccc1)c1ccccc1,inactive
20,Cc1ccc(C(=O)N/C(=C\c2cn(S(=O)(=O)N(C)C)c3ccccc23)C(=O)NCCCn2ccnc2)cc1,inactive
21,O=C(CN(CCc1ccccc1)S(=O)(=O)c1ccc(Cl)cc1)N/N=C/c1ccc2c(c1)OCO2,inactive
22,COc1ccc(N2CCN(c3oc(-c4ccccc4OC)nc3C#N)CC2)cc1,"inconclusive: 18.4 µM [inhibitor, partial curve]"

# Entries shown so far that have a COOH group (3):
row,Structure (SMILES),Potency
2,O=C(O)c1ccnc(SCC(=O)c2ccccc2)c1,inactive
1,O=C(O)c1ccc(N2C(=O)CC(N3C(=O)/C(=C/c4ccc(Cl)cc4)SC3=S)C2=O)cc1 (stereo not given),inactive
17,COCCn1c(C)cc(C(=O)Cn2nc(C(=O)O)c3ccccc3c2=O)c1C,"inconclusive: 10.3 µM [activator, partial curve]"
